Experimental data: PubChem BioAssay AID1508597 (Cure First, 2020)
This is an unselected part of the about 2,100 reagents, in one setting of the screen. 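Calls flag viability under 80% in either arm, not effects specific to rucaparib; the reference for percent is not stated.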 No sequences are given here. Not stated in the record: the 100% reference.

Test: 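Knock-downs altering ovarian cancer cell survival with or without PARP inhibitor rucaparib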 (primary screen)
Cell system: human ovarian carcinoma lines grown from tumours: OCI-P5x (papillary serous) and OCI-C5x (clear cell)
Knock-down reagent: siRNA pool against human genes, 1.25 pmol siRNA per well
Duration: 72 h or 96 h, depending on the cell culture
Challenge: rucaparib 20 µM (about IC30) or vehicle, present until read-out
Rucaparib or vehicle: Vehicle
Cell line: OCI-P5x (serous)
Measured: 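ATP luminescence measured at 72 or 96 h according to the culture, then normalised and expressed as percent viability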
Scale: viability, normalised: higher = more viable cells remaining
Hit rule: 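Active when normalised viability falls below 80 percent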
Calls: active = viability under 80%; inactive = viability 80% or more

| target gene | technical replicate | viability, normalised (%) | call |
| --- | --- | --- | --- |
| ACTR5 | 1 | 47.9 | active |
| ACTR5 | 2 | 49.2 | active |
| ACTR5 | 3 | 60.4 | active |
